Assay results reported in publication PMC2045677, “Thyroid hormone receptor orthologues from invertebrate species with emphasis on Schistosoma mansoni”.

Legend:
[1] = test system: SmRXR1 (Schistosoma mansoni); experiment: EMSA; conditions: EMSA on ice 40 min, 15 µl with 3 µl 5x buffer (5x: 20% glycerol, 5 mM MgCl2, 2.5 mM EDTA, 2.5 mM DTT, 250 mM NaCl, 50 mM Tris-HCl pH 7.5, 0.25 mg/ml poly(dI-dC)); protein translated in vitro; label: 32P
[2] = target: T1, SmTRβ (Schistosoma mansoni) (UniProt Q2TUU6); experiment: EMSA; conditions: EMSA on ice 40 min, 15 µl with 3 µl 5x buffer (5x: 20% glycerol, 5 mM MgCl2, 2.5 mM EDTA, 2.5 mM DTT, 250 mM NaCl, 50 mM Tris-HCl pH 7.5, 0.25 mg/ml poly(dI-dC)); protein translated in vitro; residues 1-847; label: 32P
T1 sequence (looked up): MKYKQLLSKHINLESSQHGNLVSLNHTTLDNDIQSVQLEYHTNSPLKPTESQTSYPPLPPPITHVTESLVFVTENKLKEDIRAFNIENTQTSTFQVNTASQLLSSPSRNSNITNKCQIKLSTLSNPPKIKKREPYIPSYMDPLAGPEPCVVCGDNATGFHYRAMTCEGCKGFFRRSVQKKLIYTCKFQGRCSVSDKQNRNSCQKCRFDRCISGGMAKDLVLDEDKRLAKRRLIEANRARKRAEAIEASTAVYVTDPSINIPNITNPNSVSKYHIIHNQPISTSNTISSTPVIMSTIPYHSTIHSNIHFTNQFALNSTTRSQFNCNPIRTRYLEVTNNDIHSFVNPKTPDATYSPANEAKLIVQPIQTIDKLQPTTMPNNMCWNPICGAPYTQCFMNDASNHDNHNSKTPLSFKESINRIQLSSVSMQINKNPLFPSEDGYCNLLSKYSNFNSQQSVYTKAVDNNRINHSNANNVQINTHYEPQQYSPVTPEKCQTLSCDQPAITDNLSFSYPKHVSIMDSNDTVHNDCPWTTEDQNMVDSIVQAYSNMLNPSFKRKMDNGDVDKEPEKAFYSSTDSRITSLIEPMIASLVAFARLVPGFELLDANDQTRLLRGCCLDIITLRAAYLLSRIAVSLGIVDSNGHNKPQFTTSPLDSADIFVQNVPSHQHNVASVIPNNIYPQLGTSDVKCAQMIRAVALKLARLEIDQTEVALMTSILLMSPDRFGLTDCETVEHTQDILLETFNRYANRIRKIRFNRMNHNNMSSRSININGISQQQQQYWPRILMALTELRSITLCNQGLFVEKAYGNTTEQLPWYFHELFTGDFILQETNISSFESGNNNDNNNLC

## CCGTAAGGTCAAGGTCACTCG (double strand) [DR0]
[1]
  binding result: binds
[2]
  binding result: binds more weakly

## CCGTAAGGTCACAAGGTCACTCG (double strand) [DR2]
[1]
  binding result: binds
[2]
  binding result: binds more weakly

## CCGTAAGGTCACAGAGGTCACTCG (double strand) [DR3]
[1]
  binding result: binds
[2]
  binding result: binds more weakly

## CCGTAAGGTCACAGGAGGTCACTCG (double strand) [DR4]
[1]
  binding result: binds
[2]
  binding result: binds more weakly

## CCGTAAGGTCACAGGTCACTCG (double strand) [DR1]
[1]
  binding result: binds
[2]
  binding result: binds more weakly

## CCGTAAGGTCACCAGGAGGTCACTCG (double strand) [DR5]
[1]
  binding result: binds
[2]
  binding result: binds more weakly

## CGCAAGGTCATGACCTCG (double strand) [Pal0]
[1]
  binding result: binds
[2]
  binding result: binds more weakly

## GTACCGTAAGGTCACTCGCGT (double strand) [half-site]
[1]
  binding result: binds
[2]
  binding result: binds more weakly

For at least one entry, the source does not settle the construct or the ends of the probe. For some of these results: The comparison behind a weaker result is the experiment's own reference, which may not be listed here. At least one verdict rests on a figure or table, not on a statement of the authors. For some of these results: Where a protein sequence is shown, tags need not be part of it.
